Binding screen against folded nucleic acids

Oligonucleotides screened, 5′ to 3′:
PreQ1: PreQ1 riboswitch RNA pseudoknot, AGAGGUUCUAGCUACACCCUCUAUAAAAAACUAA. From B. subtilis. Hit rate about 0.7% of about 24,000 compounds.
SAM-II: SAM-II riboswitch RNA pseudoknot, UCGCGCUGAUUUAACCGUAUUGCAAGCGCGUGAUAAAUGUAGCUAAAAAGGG. Hit rate about 1% of about 21,000 compounds.
TPP: TPP riboswitch RNA three-way junction, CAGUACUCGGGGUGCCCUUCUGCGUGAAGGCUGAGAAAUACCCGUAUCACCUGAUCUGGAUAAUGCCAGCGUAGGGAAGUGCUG. Hit rate about 0.7% of about 24,000 compounds.

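Compounds were printed on reactive glass slides in duplicate spots, a dye-labelled oligonucleotide was laid over them, and the fluorescence left after washing was read. For the PreQ1, TPP and SAM-II riboswitches the laboratory earlier reported (doi:10.1038/s41467-019-09493-3) 1 µM RNA, 2 h, and a rule that included a mean Z-score above 3 (spot signal-to-noise against the whole library), a score well above that on a control array, and duplicate spots agreeing (coefficient of variation under 100). The data file gives only the calls; its cut-offs may differ, and compounds hitting several targets are kept. A missing hit is not proof of no binding, and a hit is not a measured affinity.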
Key: hit = hit, no hit = tested without a hit.
The compounds are a random part of those screened.
A target missing from an entry has no call listed here.

With CN1CCN(c2cc(N3CCCC(CN4CCCCC4)C3)nc(N)n2)CC1 (stereo not given) the screen gave PreQ1: no hit; SAM-II: no hit; TPP: no hit. With N#CC1=C(N)OC2=C(C(=O)CCC2)C1CCc1ccccc1 (stereo not given) the screen gave PreQ1: no hit; SAM-II: no hit; TPP: no hit. For COc1ccccc1CNCc1ccccc1C(F)(F)F the calls were PreQ1: no hit; SAM-II: no hit; TPP: no hit. Calls for COc1cccc(C2c3c(-c4cc(C)ccc4O)n[nH]c3C(=O)N2CCO)c1 (stereo not given) are PreQ1: no hit; TPP: no hit.

CCOC(=O)N1CCC(NCCNc2cccnc2)CC1 was scored PreQ1: no hit; SAM-II: no hit; TPP: no hit. O=C(c1onc2ccccc12)N1CC[C@H]2CC[C@@H](C1)N2 was scored PreQ1: no hit; SAM-II: no hit; TPP: no hit. For C=CCOC(=O)C1=C(C)OC(N)=C(C(=O)OC)C12C(=O)N(CC=C)c1ccccc12 (stereo not given) the calls were PreQ1: no hit; SAM-II: no hit; TPP: no hit. CCOC(=O)c1cnc2c(C)cc(Cl)cc2c1Nc1ccc(C(=O)O)cc1 was scored PreQ1: no hit; SAM-II: no hit; TPP: no hit.

CN(N=O)C(=O)N[C@H]1C(O)OC(CO)[C@@H](O)[C@H]1O (stereo not given in full) was scored PreQ1: no hit; SAM-II: no hit; TPP: no hit. For Cc1cc(C)nc(CN2C(=O)C3(CCNCC3)Nc3ccccc32)n1 the calls were PreQ1: no hit; SAM-II: no hit; TPP: no hit. For Cn1c(=O)c2c(ncn2C)n(C)c1=O.O=C(O)CC(O)(CC(=O)O)C(=O)O the calls were PreQ1: no hit; SAM-II: no hit; TPP: no hit. Calls for CCOc1ccccc1N1C(=O)C2C3c4ccccc4C(CO)(c4ccccc43)C2C1=O (stereo not given) are PreQ1: no hit; SAM-II: no hit; TPP: no hit.

For Cc1nc(NCc2ccco2)nc2c1C(=O)CC(C)C2 (stereo not given) the calls were PreQ1: no hit; SAM-II: no hit; TPP: no hit. With COc1ccc2c(c1)c(C(=O)NCc1cc3n(n1)CCCNC3)c(C)n2C the screen gave PreQ1: no hit; SAM-II: no hit; TPP: no hit. With CC1(C)S[C@H]2[C@H](NC(=O)[C@@H](N)c3ccc(O)cc3)C(=O)N2[C@@H]1C(=O)O the screen gave PreQ1: no hit; SAM-II: no hit; TPP: no hit. With Cc1ccc(-c2c(Nc3cccnc3)c(=O)c2=O)cc1C the screen gave PreQ1: no hit; TPP: no hit.

COc1cccc(Nc2cc(-c3ccccc3)nc(C)n2)c1 was scored PreQ1: no hit; TPP: hit. For CC(O)c1ccc(-n2ccnc2-c2ccccc2)cc1 (stereo not given) the calls were PreQ1: no hit; SAM-II: no hit; TPP: no hit. C[C@@H](C1CCCCC1)n1c(CN)n[nH]c1=O was scored PreQ1: no hit; SAM-II: no hit; TPP: no hit. Calls for N#CC(C#N)=Cc1ccc(C=C(C#N)C#N)cc1 are PreQ1: no hit; SAM-II: no hit; TPP: no hit.

With CC(C)C[C@@H](CO)n1cc(-c2nn(C)c3cccc(Cl)c23)nn1 the screen gave PreQ1: no hit; SAM-II: no hit; TPP: no hit. With O=S(=O)(c1ccc(F)cc1)c1nc(-c2ccc(Cl)cc2)oc1NC1CC1 the screen gave PreQ1: no hit; TPP: no hit. For CN1CCN(C)C(CNC(=O)Nc2ccc(CN)cc2)C1 (stereo not given) the calls were PreQ1: no hit; SAM-II: no hit; TPP: no hit. With COCCNc1oc(-c2ccc(F)cc2)nc1S(=O)(=O)c1ccccc1 the screen gave PreQ1: no hit; TPP: no hit.

For COc1cccc(CNc2nc3ccc(Cl)cc3n3cnnc23)c1 the calls were PreQ1: no hit; TPP: no hit. COCCN(C)C[C@@H]1CN(C(=O)C2=Cc3ccccc3OC=C2)C[C@@H]1CO was scored PreQ1: no hit; SAM-II: no hit; TPP: no hit. With C[C@@]1(O)CCN(Cc2cnc(NCC(=O)O)nc2)C[C@@H]1O the screen gave PreQ1: no hit; SAM-II: no hit; TPP: no hit. With O=C1c2ccccc2S(=O)(=O)N1CC(O)Cn1c2ccc(Cl)cc2c2cc(Cl)ccc21 (stereo not given) the screen gave PreQ1: no hit; SAM-II: no hit; TPP: no hit.

For O=C(O)CCNC1CCCCC1 the calls were PreQ1: no hit; SAM-II: no hit; TPP: no hit. Calls for CCOC(=O)CN(C)c1ncc(CNCC2CN(S(C)(=O)=O)CCO2)cn1 (stereo not given) are PreQ1: no hit; SAM-II: no hit; TPP: no hit. Calls for C[C@H]1CCC/C=C\C2C[C@H](O)C[C@@H]2[C@H](O)/C=C\C(=O)O1 (stereo not given in full) are PreQ1: no hit; SAM-II: no hit; TPP: no hit. CCCCOP(=O)(OCCCC)C(Nc1ccccc1)c1ccccc1F (stereo not given) was scored PreQ1: no hit; SAM-II: no hit; TPP: no hit.

For Cc1cc(C)n(-c2cccc(C(=O)N(CCO)Cc3ccco3)c2)n1 the calls were PreQ1: no hit; SAM-II: no hit; TPP: no hit. O=C(c1ccccc1)N1CCC(NCc2cccc(-n3cccn3)c2)CC1 was scored PreQ1: no hit; SAM-II: no hit; TPP: no hit. CCCn1cnc2cc(NCc3ccc(OC)c(OC)c3)ccc21 was scored PreQ1: no hit; SAM-II: no hit; TPP: no hit. Calls for Cn1cc(C#N)cc1C(=O)N1[C@H]2CCNC[C@@H]1CC2 are PreQ1: no hit; SAM-II: no hit; TPP: no hit.

With O=S1(=O)C[C@@H]2NCCN(c3ccnc(NCCc4ccco4)n3)[C@@H]2C1 the screen gave PreQ1: no hit; SAM-II: no hit; TPP: no hit. For CC1(C)CC(=O)C2=C(C1)OC(N)=C(C#N)C2c1ccccc1F (stereo not given) the calls were PreQ1: no hit; SAM-II: no hit; TPP: no hit. With O=C1CC(c2ccc(O)cc2)Oc2cc(O)cc(O)c21 (stereo not given) the screen gave PreQ1: no hit; SAM-II: no hit; TPP: no hit.

The last 3 entries again:

{"compound": "O=S1(=O)C[C@@H]2NCCN(c3ccnc(NCCc4ccco4)n3)[C@@H]2C1", "PreQ1": "no hit", "SAM-II": "no hit", "TPP": "no hit"}
{"compound": "CC1(C)CC(=O)C2=C(C1)OC(N)=C(C#N)C2c1ccccc1F", "stereo": "stereo not given", "PreQ1": "no hit", "SAM-II": "no hit", "TPP": "no hit"}
{"compound": "O=C1CC(c2ccc(O)cc2)Oc2cc(O)cc(O)c21", "stereo": "stereo not given", "PreQ1": "no hit", "SAM-II": "no hit", "TPP": "no hit"}

Calls as published in the ROBIN set (doi:10.1002/anie.202211358).